# The other results are listed elsewhere or left out.
# Sequences of proteins named here, by UniProt entry; tags and fusion partners are left off. A change or cut given only in a name is not applied to a line headed by its entry.
# UniProt O75116: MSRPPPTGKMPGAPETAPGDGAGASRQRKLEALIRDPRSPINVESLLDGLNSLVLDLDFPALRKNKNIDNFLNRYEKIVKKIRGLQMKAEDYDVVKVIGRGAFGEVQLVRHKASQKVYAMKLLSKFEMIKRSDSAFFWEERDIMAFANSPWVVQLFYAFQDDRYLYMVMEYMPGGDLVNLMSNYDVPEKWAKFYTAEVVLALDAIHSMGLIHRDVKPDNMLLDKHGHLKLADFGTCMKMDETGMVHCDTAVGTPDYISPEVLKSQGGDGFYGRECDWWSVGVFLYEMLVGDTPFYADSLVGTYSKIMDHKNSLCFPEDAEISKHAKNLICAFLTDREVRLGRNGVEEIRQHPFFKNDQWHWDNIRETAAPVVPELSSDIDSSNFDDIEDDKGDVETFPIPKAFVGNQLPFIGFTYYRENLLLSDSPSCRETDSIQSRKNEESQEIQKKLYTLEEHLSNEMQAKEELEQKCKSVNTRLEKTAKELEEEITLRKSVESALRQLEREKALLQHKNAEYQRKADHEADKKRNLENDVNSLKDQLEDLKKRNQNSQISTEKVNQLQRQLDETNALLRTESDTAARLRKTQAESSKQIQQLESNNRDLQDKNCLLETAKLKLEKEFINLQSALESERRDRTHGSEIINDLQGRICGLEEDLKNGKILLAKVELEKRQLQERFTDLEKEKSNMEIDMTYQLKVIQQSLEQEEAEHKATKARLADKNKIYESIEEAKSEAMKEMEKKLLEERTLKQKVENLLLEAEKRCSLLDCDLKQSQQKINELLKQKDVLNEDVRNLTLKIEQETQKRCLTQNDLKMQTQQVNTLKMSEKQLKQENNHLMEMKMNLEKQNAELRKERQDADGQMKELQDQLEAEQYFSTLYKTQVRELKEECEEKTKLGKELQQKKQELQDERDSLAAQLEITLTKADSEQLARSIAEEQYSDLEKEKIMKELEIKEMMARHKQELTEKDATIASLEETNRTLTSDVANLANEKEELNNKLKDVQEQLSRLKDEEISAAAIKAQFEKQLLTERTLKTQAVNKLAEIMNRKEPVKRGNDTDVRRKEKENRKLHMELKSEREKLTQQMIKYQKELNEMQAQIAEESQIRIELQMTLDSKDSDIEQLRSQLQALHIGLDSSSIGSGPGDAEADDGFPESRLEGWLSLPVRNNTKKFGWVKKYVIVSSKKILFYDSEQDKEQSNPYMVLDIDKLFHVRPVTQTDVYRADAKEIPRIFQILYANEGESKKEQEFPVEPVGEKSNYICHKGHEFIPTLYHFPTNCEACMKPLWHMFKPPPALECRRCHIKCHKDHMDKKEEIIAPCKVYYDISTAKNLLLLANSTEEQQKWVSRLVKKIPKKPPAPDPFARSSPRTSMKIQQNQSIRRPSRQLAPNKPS
# UniProt Q14141: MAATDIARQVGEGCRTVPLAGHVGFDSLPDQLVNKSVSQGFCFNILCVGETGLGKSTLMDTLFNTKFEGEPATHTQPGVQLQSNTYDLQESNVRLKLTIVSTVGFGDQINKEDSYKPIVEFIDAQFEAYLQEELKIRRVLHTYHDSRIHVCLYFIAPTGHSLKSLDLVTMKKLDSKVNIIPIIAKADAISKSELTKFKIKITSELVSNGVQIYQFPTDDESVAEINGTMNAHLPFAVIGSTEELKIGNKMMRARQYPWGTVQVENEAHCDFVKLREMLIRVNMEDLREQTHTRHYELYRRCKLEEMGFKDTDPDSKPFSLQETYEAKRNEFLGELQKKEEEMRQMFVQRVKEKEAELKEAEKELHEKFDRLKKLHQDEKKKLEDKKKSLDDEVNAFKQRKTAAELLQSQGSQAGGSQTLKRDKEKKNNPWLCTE
# UniProt Q14151: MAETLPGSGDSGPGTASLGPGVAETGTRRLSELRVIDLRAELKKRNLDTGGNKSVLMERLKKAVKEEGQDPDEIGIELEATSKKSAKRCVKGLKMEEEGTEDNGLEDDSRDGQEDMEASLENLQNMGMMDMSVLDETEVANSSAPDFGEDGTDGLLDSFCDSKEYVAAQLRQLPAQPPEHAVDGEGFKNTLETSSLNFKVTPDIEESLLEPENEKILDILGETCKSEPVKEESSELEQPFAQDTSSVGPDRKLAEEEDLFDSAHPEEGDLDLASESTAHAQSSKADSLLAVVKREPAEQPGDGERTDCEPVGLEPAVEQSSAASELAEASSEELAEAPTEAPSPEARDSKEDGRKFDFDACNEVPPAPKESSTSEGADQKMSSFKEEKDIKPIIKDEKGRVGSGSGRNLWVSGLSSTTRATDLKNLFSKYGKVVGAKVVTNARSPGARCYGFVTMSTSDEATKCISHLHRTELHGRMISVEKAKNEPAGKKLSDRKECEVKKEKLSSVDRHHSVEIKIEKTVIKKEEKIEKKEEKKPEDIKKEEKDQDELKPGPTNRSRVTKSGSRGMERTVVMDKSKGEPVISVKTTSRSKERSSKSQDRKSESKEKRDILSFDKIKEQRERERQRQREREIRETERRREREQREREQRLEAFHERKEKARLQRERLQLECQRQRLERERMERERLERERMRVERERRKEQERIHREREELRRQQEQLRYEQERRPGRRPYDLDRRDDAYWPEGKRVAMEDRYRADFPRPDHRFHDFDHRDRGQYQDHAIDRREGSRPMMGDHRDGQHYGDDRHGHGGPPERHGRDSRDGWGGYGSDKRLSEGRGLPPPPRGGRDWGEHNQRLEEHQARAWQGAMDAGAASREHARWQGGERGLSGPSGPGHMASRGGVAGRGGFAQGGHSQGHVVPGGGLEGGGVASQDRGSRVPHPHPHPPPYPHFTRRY
# UniProt Q13464: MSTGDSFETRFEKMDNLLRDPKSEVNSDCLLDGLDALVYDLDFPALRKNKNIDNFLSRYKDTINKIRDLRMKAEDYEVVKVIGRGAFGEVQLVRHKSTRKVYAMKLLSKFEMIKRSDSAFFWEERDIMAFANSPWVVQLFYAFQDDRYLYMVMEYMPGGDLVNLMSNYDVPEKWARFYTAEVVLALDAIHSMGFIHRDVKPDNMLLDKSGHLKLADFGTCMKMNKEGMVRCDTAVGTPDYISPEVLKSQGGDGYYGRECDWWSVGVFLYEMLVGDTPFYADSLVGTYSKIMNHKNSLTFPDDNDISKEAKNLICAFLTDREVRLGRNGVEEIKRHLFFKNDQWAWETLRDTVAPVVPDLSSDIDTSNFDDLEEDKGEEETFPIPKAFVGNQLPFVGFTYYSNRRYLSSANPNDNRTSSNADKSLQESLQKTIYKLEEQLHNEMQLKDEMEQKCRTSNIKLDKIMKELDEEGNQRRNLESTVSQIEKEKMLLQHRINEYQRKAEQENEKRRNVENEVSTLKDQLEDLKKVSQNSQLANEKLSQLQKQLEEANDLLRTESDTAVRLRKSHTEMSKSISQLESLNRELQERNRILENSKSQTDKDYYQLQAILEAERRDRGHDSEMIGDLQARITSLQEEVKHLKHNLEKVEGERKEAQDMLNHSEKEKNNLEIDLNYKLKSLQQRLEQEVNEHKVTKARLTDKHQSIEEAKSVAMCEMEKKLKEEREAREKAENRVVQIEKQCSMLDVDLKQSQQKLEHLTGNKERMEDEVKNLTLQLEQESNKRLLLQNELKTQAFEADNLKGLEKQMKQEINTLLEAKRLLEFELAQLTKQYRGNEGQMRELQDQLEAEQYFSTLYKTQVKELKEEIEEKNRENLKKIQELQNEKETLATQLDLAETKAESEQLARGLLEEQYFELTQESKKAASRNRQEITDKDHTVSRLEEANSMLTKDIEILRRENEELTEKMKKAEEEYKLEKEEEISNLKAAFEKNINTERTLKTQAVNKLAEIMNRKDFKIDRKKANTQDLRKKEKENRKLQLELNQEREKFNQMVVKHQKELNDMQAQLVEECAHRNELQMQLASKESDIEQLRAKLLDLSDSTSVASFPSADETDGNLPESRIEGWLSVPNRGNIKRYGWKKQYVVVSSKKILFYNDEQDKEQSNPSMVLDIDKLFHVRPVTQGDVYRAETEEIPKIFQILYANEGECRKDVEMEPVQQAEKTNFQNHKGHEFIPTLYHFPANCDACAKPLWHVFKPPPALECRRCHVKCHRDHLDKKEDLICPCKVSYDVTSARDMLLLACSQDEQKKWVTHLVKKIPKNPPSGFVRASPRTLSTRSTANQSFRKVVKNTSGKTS
# UniProt A3KN83: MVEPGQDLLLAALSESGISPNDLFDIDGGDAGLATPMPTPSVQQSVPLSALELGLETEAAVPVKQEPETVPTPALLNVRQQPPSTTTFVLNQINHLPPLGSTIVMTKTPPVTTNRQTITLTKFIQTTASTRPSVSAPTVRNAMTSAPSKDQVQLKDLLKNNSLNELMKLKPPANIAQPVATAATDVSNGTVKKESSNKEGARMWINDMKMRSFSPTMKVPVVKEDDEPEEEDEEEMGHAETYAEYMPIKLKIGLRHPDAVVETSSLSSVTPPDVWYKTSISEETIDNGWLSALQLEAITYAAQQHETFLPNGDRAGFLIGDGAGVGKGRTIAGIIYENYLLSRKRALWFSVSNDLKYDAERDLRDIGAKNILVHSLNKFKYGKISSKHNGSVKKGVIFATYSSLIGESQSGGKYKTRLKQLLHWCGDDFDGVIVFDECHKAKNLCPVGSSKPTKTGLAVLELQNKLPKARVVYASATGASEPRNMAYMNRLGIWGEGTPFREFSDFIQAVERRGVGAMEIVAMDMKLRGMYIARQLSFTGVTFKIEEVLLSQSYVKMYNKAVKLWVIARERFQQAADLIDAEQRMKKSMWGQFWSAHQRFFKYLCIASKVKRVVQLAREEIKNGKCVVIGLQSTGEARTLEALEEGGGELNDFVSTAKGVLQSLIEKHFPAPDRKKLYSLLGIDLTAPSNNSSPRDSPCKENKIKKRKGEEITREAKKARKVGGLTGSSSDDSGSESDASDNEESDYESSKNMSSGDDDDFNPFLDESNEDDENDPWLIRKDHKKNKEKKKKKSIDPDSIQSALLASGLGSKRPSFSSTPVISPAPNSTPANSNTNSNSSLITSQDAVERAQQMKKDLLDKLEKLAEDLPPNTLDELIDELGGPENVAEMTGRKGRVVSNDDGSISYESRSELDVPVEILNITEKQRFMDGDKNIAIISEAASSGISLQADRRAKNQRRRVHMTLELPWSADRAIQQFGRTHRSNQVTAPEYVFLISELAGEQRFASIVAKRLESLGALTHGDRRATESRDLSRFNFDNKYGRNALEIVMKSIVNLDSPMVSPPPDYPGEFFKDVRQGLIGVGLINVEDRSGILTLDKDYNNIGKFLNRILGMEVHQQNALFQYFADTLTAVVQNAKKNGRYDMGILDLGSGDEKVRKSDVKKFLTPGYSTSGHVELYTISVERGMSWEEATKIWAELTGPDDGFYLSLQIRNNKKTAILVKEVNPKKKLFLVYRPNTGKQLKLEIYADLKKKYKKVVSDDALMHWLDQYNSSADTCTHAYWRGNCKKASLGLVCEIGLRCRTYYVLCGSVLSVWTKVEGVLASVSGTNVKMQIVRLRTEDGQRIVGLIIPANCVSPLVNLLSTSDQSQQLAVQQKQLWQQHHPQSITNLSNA
# UniProt Q9NZV5, whole entry: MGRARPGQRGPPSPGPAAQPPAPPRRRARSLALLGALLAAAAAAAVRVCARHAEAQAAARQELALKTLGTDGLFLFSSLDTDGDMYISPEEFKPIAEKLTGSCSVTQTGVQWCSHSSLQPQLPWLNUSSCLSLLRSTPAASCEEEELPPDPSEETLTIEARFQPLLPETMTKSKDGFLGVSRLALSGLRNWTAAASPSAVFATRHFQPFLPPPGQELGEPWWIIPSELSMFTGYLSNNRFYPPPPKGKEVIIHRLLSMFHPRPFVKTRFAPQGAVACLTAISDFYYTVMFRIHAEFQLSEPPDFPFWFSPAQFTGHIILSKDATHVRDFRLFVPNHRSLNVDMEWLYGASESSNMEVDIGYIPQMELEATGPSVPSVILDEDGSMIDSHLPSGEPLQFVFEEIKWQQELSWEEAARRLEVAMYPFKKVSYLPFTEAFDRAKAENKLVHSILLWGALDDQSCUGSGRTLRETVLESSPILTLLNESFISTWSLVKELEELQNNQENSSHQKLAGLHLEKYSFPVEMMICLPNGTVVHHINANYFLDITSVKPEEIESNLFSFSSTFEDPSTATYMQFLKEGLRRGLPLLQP
# UniProt Q0VDG4: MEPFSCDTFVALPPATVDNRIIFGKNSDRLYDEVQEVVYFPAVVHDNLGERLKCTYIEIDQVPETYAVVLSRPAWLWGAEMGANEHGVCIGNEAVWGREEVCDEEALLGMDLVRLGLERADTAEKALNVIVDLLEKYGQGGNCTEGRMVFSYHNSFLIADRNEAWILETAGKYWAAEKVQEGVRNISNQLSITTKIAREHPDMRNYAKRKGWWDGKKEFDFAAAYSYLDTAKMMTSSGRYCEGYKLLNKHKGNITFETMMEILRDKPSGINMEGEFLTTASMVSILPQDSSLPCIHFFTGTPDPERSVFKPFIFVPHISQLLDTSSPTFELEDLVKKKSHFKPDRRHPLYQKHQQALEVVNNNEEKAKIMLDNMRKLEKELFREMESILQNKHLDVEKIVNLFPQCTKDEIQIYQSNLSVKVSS
# Compound: COc1ccc(Cn2ccc3cc(C)c(C(=O)NO)cc32)cc1
# Assay: dose-dependent thermal stabilisation call (2D-TPP, DLPTP, 10% FDR) (binary (1 = stabilised)); higher = stabilised by the compound
# Conditions: system: HL-60 intact cells; concentration range 0.04-10 µM
# Method: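 2D thermal proteome profiling in intact HL-60 cells treated with BRD-3811 (0, 0.04, 0.29, 2, 10 uM) for 90 min at 37 C, then heated 3 min at one of 12 temperatures (42-63.9 C). Soluble protein was quantified by TMT10 MS. The value is the DLPTP call of the paper: dose-dependent thermal stabilisation over all temperatures at 10% FDR (F-test of a dose-response against a flat model); one experiment, one call per tested protein.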
row,Target,dose-dependent thermal stabilisation call
1,ROCK2 (UniProt O75116),inactive: 0
2,RPLP2 (UniProt P05387),inactive: 0
3,SCAP (UniProt Q12770),inactive: 0
4,RRP9 (UniProt O43818),inactive: 0
5,SDSL (UniProt Q96GA7),inactive: 0
6,RNF40 (UniProt O75150),inactive: 0
7,RPRD2 (UniProt Q5VT52),inactive: 0
8,RUVBL2 (UniProt Q9Y230),inactive: 0
9,SEPT6 (UniProt Q14141),inactive: 0
10,RPL35 (UniProt P42766),inactive: 0
11,RNF34 (UniProt Q969K3),inactive: 0
12,SCCPDH (UniProt Q8NBX0),inactive: 0
13,RXRB (UniProt P28702),inactive: 0
14,SCAF1 (UniProt Q9H7N4),inactive: 0
15,SAFB2 (UniProt Q14151),inactive: 0
16,ROCK1 (UniProt Q13464),inactive: 0
17,RPS3 (UniProt P23396),inactive: 0
18,RPL23 (UniProt P62829),inactive: 0

# 2 neighbouring entries from above:
row,Target,dose-dependent thermal stabilisation call
8,RUVBL2 (UniProt Q9Y230),inactive: 0
9,SEPT6 (UniProt Q14141),inactive: 0

# (further entries)

row,Target,dose-dependent thermal stabilisation call
1,SBNO1 (UniProt A3KN83),inactive: 0
2,SEPN1 (UniProt Q9NZV5),inactive: 0
3,SELT (UniProt P62341),inactive: 0
4,RSAD1 (UniProt Q9HA92),inactive: 0
5,RPL23A (UniProt P62750),inactive: 0
6,SEPT2 (UniProt Q15019),inactive: 0
7,RPL9 (UniProt P32969),inactive: 0
8,S100A8 (UniProt P05109),inactive: 0
9,RPS6KB2 (UniProt Q9UBS0),inactive: 0
10,SEC23A (UniProt Q15436),inactive: 0
11,SCD (UniProt O00767),inactive: 0
12,RSPRY1 (UniProt Q96DX4),inactive: 0
13,SENP3 (UniProt Q9H4L4),inactive: 0
14,SCLY (UniProt Q96I15),inactive: 0
15,RPLP0-LIKE,inactive: 0
16,SCRN3 (UniProt Q0VDG4),inactive: 0
17,RPP38 (UniProt P78345),inactive: 0
18,RPL18 (UniProt Q07020),active: 1

# — the supplement of paper PMC7666118
